## Screening data

Source: PubChem BioAssay AID504749 (NCATS, 2011).

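A panel of P. falciparum strains inside erythrocytes is exposed to compounds for three days, then a DNA-binding dye reports the amount of parasite DNA.
Each compound was titrated across a series from about 0.000037 to 29 µM.
The number is the fitted AC50, the concentration giving a half-maximal change in signal; a lower value means higher potency, whether the curve shows a decrease or an increase.
Calls follow the curve class and fit quality: every row here is inconclusive, covering signal-raising curves and weak, poorly fitted, partial or highest-dose-only inhibition curves.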

Values are in µM.
Every entry below has the call inconclusive.
These entries are mostly ones the record files as inconclusive; other results of the assay are not listed here.
A potency from a partial, single-point or poor curve is only a rough figure.
The first word of each remark tells which way the curve ran; it can be opposite to the aim of the assay.

| SMILES | condition | Potency (µM) | curve |
|---|---|---|---|
| `O=C(c1ccccc1)C(O)c1ccccc1` (centres undefined) | CP291 | 19.01 | inhibitor, partial curve, poor fit |
| `O=C(c1ccccc1)C(O)c1ccccc1` (centres undefined) | DIV17 | 9.528 | inhibitor, partial curve |
| `O=C(c1ccccc1)C(O)c1ccccc1` (centres undefined) | W2 | 12 | inhibitor, partial curve |
| `CN(C)C(=O)COC(=O)Cc1ccc(OC(=O)c2ccc(N=C(N)N)cc2)cc1` | Dd2 | 15.85 | inhibitor, partial curve, poor fit |
| `CN(C)C(=O)COC(=O)Cc1ccc(OC(=O)c2ccc(N=C(N)N)cc2)cc1` | CP215 | 13.46 | inhibitor, partial curve, poor fit |
| `COc1ccc(Cc2cnc(N)nc2N)cc1OC` | CP260 | 17.78 | inhibitor, single point |
| `COc1ccc(Cc2cnc(N)nc2N)cc1OC` | HB3 | 17.78 | inhibitor, single point |
| `COc1ccc(Cc2cnc(N)nc2N)cc1OC` | CP297 | 0.0005 | activator |
| `C[C@]12CCC(=O)C=C1CC[C@@H]1[C@@H]2[C@@H](O)C[C@@]2(C)[C@H]1CC[C@]2(O)C(=O)COP(=O)(O)O` | P93_24 | 3.162 | inhibitor, single point |
| `C[C@]12CCC(=O)C=C1CC[C@@H]1[C@@H]2[C@@H](O)C[C@@]2(C)[C@H]1CC[C@]2(O)C(=O)COP(=O)(O)O` | CP247 | 3.162 | inhibitor, single point |
| `Cc1c(NC(=O)c2cccnc2)c(=O)n(-c2ccccc2)n1C` | CP315 | 2.031 | inhibitor, single point |
| `Cc1c(NC(=O)c2cccnc2)c(=O)n(-c2ccccc2)n1C` | CP215 | 8.087 | inhibitor, single point |
| `Cc1c(NC(=O)c2cccnc2)c(=O)n(-c2ccccc2)n1C` | 7G8 | 0.0794 | activator, full curve, poor fit |
| `C[C@H]1C[C@H]2[C@@H]3CCC4=CC(=O)C=C[C@]4(C)[C@@]3(F)[C@@H](O)C[C@]2(C)[C@@]1(O)C(=O)CO` | 7G8 | 12.59 | inhibitor, single point |
| `C=CCN1CC[C@]23c4c5ccc(O)c4O[C@H]2[C@@H](O)C=C[C@H]3[C@H]1C5` | CP247 | 12.59 | inhibitor, single point |
| `C=CCN1CC[C@]23c4c5ccc(O)c4O[C@H]2[C@@H](O)C=C[C@H]3[C@H]1C5` | CP266 | 4.256 | inhibitor, partial curve, poor fit |
| `O=C(O)CCNC(=O)c1ccc(N=Nc2ccc(O)c(C(=O)O)c2)cc1` | HB3 | 3.162 | inhibitor, full curve, poor fit |
| `O=C(O)CCNC(=O)c1ccc(N=Nc2ccc(O)c(C(=O)O)c2)cc1` | Dd2 | 0.0063 | inhibitor, full curve, poor fit |
| `COCc1c(C(C)C)nc(C(C)C)c(/C=C/[C@@H](O)C[C@@H](O)CC(=O)O)c1-c1ccc(F)cc1` | CP215 | 10.69 | inhibitor, single point |
| `COCc1c(C(C)C)nc(C(C)C)c(/C=C/[C@@H](O)C[C@@H](O)CC(=O)O)c1-c1ccc(F)cc1` | SC27B | 19.95 | inhibitor, single point |
| `COCc1c(C(C)C)nc(C(C)C)c(/C=C/[C@@H](O)C[C@@H](O)CC(=O)O)c1-c1ccc(F)cc1` | CP247 | 0.0794 | inhibitor, full curve, poor fit |
| `COCc1c(C(C)C)nc(C(C)C)c(/C=C/[C@@H](O)C[C@@H](O)CC(=O)O)c1-c1ccc(F)cc1` | 7G8 | 8.912 | inhibitor, partial curve |
| `CC[C@](C)(CN(C)C)OC(=O)c1ccccc1` | GB4 | 8.087 | inhibitor, single point |
| `CC[C@](C)(CN(C)C)OC(=O)c1ccccc1` | CP237 | 3.548 | inhibitor, partial curve |
| `CC[C@](C)(CN(C)C)OC(=O)c1ccccc1` | CP203 | 5.103 | inhibitor, partial curve, poor fit |
| `CC[C@](C)(CN(C)C)OC(=O)c1ccccc1` | P93_24 | 3.162 | inhibitor, single point |
| `CC[C@](C)(CN(C)C)OC(=O)c1ccccc1` | CP335 | 6.424 | inhibitor, partial curve, poor fit |
| `CC[C@](C)(CN(C)C)OC(=O)c1ccccc1` | DIV14 | 9.074 | inhibitor, partial curve, poor fit |

Some entries from above, unchanged:

| SMILES | condition | Potency (µM) | curve |
|---|---|---|---|
| `CC[C@](C)(CN(C)C)OC(=O)c1ccccc1` | CP237 | 3.548 | inhibitor, partial curve |
| `CC[C@](C)(CN(C)C)OC(=O)c1ccccc1` | DIV14 | 9.074 | inhibitor, partial curve, poor fit |